Measured values as given in publication PMC7463354.
Positions count from the first letter of the chain named. Construct, isoform or probe ends are uncertain for at least one entry. At least one result comes from cells or an extract, where the contact may be indirect. For some assays here: The comparison behind a weaker result is the experiment's own reference, which may not be listed here. Tags and fusion partners may be left off the protein sequences shown.

By UniProt entry, the sequences of proteins in these tests, tags left out. Where a name states a change or a piece, a line headed by the entry shows the natural chain unless it says otherwise.
UniProt Q9H9Z2: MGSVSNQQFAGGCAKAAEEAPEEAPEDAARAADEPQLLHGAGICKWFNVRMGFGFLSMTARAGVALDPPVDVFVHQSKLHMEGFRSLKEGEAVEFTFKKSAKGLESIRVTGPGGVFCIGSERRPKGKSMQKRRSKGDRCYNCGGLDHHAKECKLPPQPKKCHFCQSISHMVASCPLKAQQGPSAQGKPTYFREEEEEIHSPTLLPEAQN

Assays:
[1] = target: T1, HA-LIN28A-K15R (Homo sapiens) (UniProt Q9H9Z2); assay: pull-down; settings: 293T lysate, anti-HA immunoblot, less than WT; protein in a lysate after overexpression; residues 1-209; protein details: HA; label: biotin (T7 transcribed); letters put together from the description
T1 sequence (looked up): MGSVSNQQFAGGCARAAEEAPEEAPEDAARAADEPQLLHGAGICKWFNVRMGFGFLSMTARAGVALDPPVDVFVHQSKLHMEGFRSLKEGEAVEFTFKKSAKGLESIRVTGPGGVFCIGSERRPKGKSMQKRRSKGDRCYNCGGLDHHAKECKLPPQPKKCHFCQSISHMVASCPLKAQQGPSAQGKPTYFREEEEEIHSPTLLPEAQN

[2] = target: T2, HA-LIN28A-WT (Homo sapiens) (UniProt Q9H9Z2); assay: pull-down; settings: 293T lysate, anti-HA immunoblot; protein in a lysate after overexpression; residues 1-209; protein details: HA; label: biotin (T7 transcribed); letters put together from the description
T2 sequence (looked up): T1 sequence (looked up) with R15K

“UGAGGUAGUAGUUUGUACAGUUUGAGGGUCUAUGAUACCACCCGGUACAGGAGAUAACUGUACAGGCCACUGCCUUGC [pre-let-7g]”: binds more weakly [1]; binds [2].
